system: rats fed a palatable diet; assay: Spontaneous activity (RFID TraffiCage); format: in vivo, female Wistar rats; details: KSK 10 mg/kg b.w., phentermine 7 mg/kg; vs palatable diet + vehicle

| Structure (SMILES) | spontaneous activity after the 1st (single) administration | spontaneous activity after the 27th (repeated) administration |
| --- | --- | --- |
| CCC(=O)c1ccc(OCCCCCCN2CCN(c3ccncc3)CC2)cc1 [KSK-60] | reduced spontaneous activity at the 17th hour of measurement | reduction in spontaneous activity at the 15th hour of measurement |
| CCC(=O)c1ccc(OCCCCCCCCN2CCN(c3ccncc3)CC2)cc1 [KSK-74] | did not affect spontaneous activity | did not affect spontaneous activity |
| CC(C)(N)Cc1ccccc1 [phentermine, reference compound] | decreased spontaneous activity at the 17th hour of measurement | increase in spontaneous activity at the 2nd hour of measurement |
